Assay results taken from patent US10064926B2, “Peptides and combination of peptides for use in immunotherapy against hepatocellular carcinoma (HCC) and other cancers” (Immatics biotechnologies GmbH, priority 2014, dated 2018).

Tests used:
[1] = test system: primary HCC tissue samples; assay: Identification and label-free LC-MS relative quantitation of HLA-presented peptides (presentation profiles/scores), HCC versus normal tissues; design: species or system human; key to PeptidePresentation (presentation score): very highly over-presented on tumors compared to a panel of normal tissues (+++); highly over-presented on tumors compared to a panel of normal tissues (++); over-presented on tumors compared to a panel of normal tissues (+); settings: for PeptidePresentation (presentation score): HCC tumors compared to a panel of normal tissues; for over-presentation in HCC compared with normal tissues: FIG. 1 presentation profiles
[2] = test system: tumor samples of other tumor types; assay: Over-presentation of peptides on additional tumor types versus normal tissues (LC-MS); design: species or system human; settings: for Other relevant organs/diseases (additional tumor types on which the peptide was found over-presented) / Additional Entities (additional tumor types on which the peptide was found over-presented): over-presentation on more than 5% of the measured tumor samples, or presentation on more than 5% with ratio of geometric means tumor vs normal tissues larger than 3; for number of cancer tissues on which the peptide was presented / number of cell-lines on which the peptide was presented / number of normal tissues on which the peptide was presented: FIG. 1, only samples on which the peptide was presented

In the case of “60 (ILSPLSVAL; listed as Homo sapiens) [compound 60]”, the “PeptidePresentation (presentation score)” value [1] is reported as “+” and the “Other relevant organs/diseases (additional tumor types on which the peptide was found over-presented)” value [2] is reported as “Kidney, Pancreas”.
“63 (KIDEKNFVV; listed as Homo sapiens) [compound 63]” was tested, and the “over-presentation in HCC compared with normal tissues” value [1] was “over-presentation”, the “number of cancer tissues on which the peptide was presented” value [2] was 16 and the “number of cell-lines on which the peptide was presented” value [2] was 5. For the same substance, the “number of normal tissues on which the peptide was presented” value [2] was 1 and the “Additional Entities (additional tumor types on which the peptide was found over-presented)” value [2] was “SCLC, Brain Cancer, Urinary bladder cancer, Uterine Cancer”.
“70 (KLLDLETERILL; listed as Homo sapiens) [compound 70]” was tested, and the “PeptidePresentation (presentation score)” value [1] was “++”, the “Additional Entities (additional tumor types on which the peptide was found over-presented)” value [2] was “OC, Uterine Cancer” and the “Other relevant organs/diseases (additional tumor types on which the peptide was found over-presented)” value [2] was “Colon, Rectum”.
In the case of “72 (KLSEAVTSV; listed as Homo sapiens) [compound 72]”, the “PeptidePresentation (presentation score)” value [1] is reported as “+” and the “Other relevant organs/diseases (additional tumor types on which the peptide was found over-presented)” value [2] is reported as “Kidney”.
In the case of “77 (LLHEENFSV; listed as Homo sapiens) [compound 77]”, the “PeptidePresentation (presentation score)” value [1] is reported as “+”, the “Additional Entities (additional tumor types on which the peptide was found over-presented)” value [2] is reported as “NSCLC, SCLC, OC, Esophageal Cancer, Urinary bladder cancer, Uterine Cancer, Gallbladder Cancer, Bile Duct Cancer, NHL” and the “Other relevant organs/diseases (additional tumor types on which the peptide was found over-presented)” value [2] is reported as “Kidney, Colon, Rectum”.
With “81 (NLASFIEQVAV; listed as Homo sapiens) [compound 81]” the “PeptidePresentation (presentation score)” value [1] was “++”, the “Additional Entities (additional tumor types on which the peptide was found over-presented)” value [2] was “SCLC, PrC, OC, Uterine Cancer, NHL” and the “Other relevant organs/diseases (additional tumor types on which the peptide was found over-presented)” value [2] was “Kidney, Colon, Rectum, Pancreas”.
In the case of “86 (RLAAFYSQV; listed as Homo sapiens) [compound 86]”, the “PeptidePresentation (presentation score)” value [1] is reported as “+++” and the “Additional Entities (additional tumor types on which the peptide was found over-presented)” value [2] is reported as “AML”.
“88 (RLIDRIKTV; listed as Homo sapiens) [compound 88]” was tested, and the “PeptidePresentation (presentation score)” value [1] was “+++”, the “Additional Entities (additional tumor types on which the peptide was found over-presented)” value [2] was “NSCLC, SCLC, OC, AML, NHL” and the “Other relevant organs/diseases (additional tumor types on which the peptide was found over-presented)” value [2] was “Brain, Colon, Rectum”.
For “89 (RLIEEIKNV; listed as Homo sapiens) [compound 89]”, the “PeptidePresentation (presentation score)” value [1] was “+++” and the “Additional Entities (additional tumor types on which the peptide was found over-presented)” value [2] was “SCLC”.
With “91 (RLPDIPLRQV; listed as Homo sapiens) [compound 91]” the “PeptidePresentation (presentation score)” value [1] was “+” and the “Additional Entities (additional tumor types on which the peptide was found over-presented)” value [2] was “NSCLC, CLL, Urinary bladder cancer, NHL”.
For “92 (RLPPDTLLQQV; listed as Homo sapiens) [compound 92]”, the “over-presentation in HCC compared with normal tissues” value [1] was “over-presentation”, the “number of cancer tissues on which the peptide was presented” value [2] was 17 and the “number of cell-lines on which the peptide was presented” value [2] was 2. For the same substance, the “number of normal tissues on which the peptide was presented” value [2] was 2 and the “Additional Entities (additional tumor types on which the peptide was found over-presented)” value [2] was “Urinary bladder cancer”.
With “94 (RMSDVVKGV; listed as Homo sapiens) [compound 94]” the “PeptidePresentation (presentation score)” value [1] was “+++” and the “Additional Entities (additional tumor types on which the peptide was found over-presented)” value [2] was “BRCA, OC”.
“96 (SLLEEPNVIRV; listed as Homo sapiens) [compound 96]” was tested, and the “PeptidePresentation (presentation score)” value [1] was “++”, the “Additional Entities (additional tumor types on which the peptide was found over-presented)” value [2] was “Melanoma, Gallbladder Cancer, Bile Duct Cancer” and the “Other relevant organs/diseases (additional tumor types on which the peptide was found over-presented)” value [2] was “Kidney”.
With “99 (SLSAFLPSL; listed as Homo sapiens) [compound 99]” the “PeptidePresentation (presentation score)” value [1] was “+++” and the “Additional Entities (additional tumor types on which the peptide was found over-presented)” value [2] was “OC, Esophageal Cancer, Gallbladder Cancer, Bile Duct Cancer, NHL”.
“101 (SLWEGGVRGV; listed as Homo sapiens) [compound 101]” was tested, and the “PeptidePresentation (presentation score)” value [1] was “+++”, the “Additional Entities (additional tumor types on which the peptide was found over-presented)” value [2] was “Melanoma” and the “Other relevant organs/diseases (additional tumor types on which the peptide was found over-presented)” value [2] was “Brain”.
